# Source: PubChem BioAssay AID1259424 (University of Nebraska Medical Center, 2018)
# Purpose: 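Find knockdowns that reproduce the expression shifts seen after KSR1 loss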 (primary screen)
# Cells: human HCT116 colon cancer cells
# Knock-down reagent: siRNA pool against human genes, 50 nM
# Detection: 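Six signature mRNAs by branched-DNA multiplex assay, scaled to two housekeeping genes and non-targeting median, log2; matched to mean KSR1 knockdown profile by Pearson correlation and euclidean distance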
# Direction: mean correlation with KSR1 profile and KSR1 correlation: higher = expression change more like KSR1 knockdown; mean distance from KSR1 profile: higher = expression change less like KSR1 knockdown
# The deposit covers about 14,000 reagents; shown is a random part of them. 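Higher correlation or smaller distance means closer resemblance to KSR1 loss; control wells, including KSR1 knockdowns, recur on many plates.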 A reagent listed more than once was tested more than once; the source does not tell the runs apart. Not given: the time to read-out.
target gene,PubChem SID,mean correlation with KSR1 profile,mean distance from KSR1 profile,"KSR1 correlation, replicate 1","KSR1 correlation, replicate 2","KSR1 correlation, replicate 3"
MRPL12 (mitochondrial ribosomal protein L12),SID363994100,-0.272,2.79,-0.327,-0.217,-0.2
ANXA11 (annexin A11),SID363992449,0.464,1.19,0.757,0.396,0.302
CLPTM1 (CLPTM1 regulator of GABA type A receptor forward trafficking),SID363992578,0.332,0.882,0.331,0.233,0.241
TMEM168 (transmembrane protein 168),SID364002469,0.0627,1.68,0.0487,-0.212,0.0416
"BLK (BLK proto-oncogene, Src family tyrosine kinase)",SID363992936,0.242,2.91,0.299,-0.389,-0.139
OMG (oligodendrocyte myelin glycoprotein),SID363993715,-0.171,1.73,0.0953,-0.0805,-0.253
SLC17A5,SID363998316,-0.233,1.55,-0.409,-0.449,-0.0221
MVD (mevalonate diphosphate decarboxylase),SID363993636,0.488,2.08,0.424,0.603,0.436
SPEG (striated muscle enriched protein kinase),SID363996749,-0.364,2.16,-0.5,-0.415,-0.48
SPEG (striated muscle enriched protein kinase),SID363996749,0.246,2.43,0.257,0.333,-0.0046
HOXA13 (homeobox A13),SID363991845,0.727,1.65,0.547,0.747,0.817
UNC79 (unc-79 subunit of NALCN channel complex),SID364001850,-0.302,4.52,-0.234,-0.734,-0.0106
DLX2 (distal-less homeobox 2),SID363995388,0.734,1.51,0.766,0.784,0.597
SPACA9 (sperm acrosome associated 9),SID364001282,-0.25,1.33,-0.331,-0.176,-0.114
GATA1 (GATA binding protein 1),SID363993259,0.608,2.5,0.017,0.56,0.677
SREBF2 (sterol regulatory element binding transcription factor 2),SID363995569,0.299,2.02,0.132,0.237,0.376
"RAB3D (RAB3D, member RAS oncogene family)",SID363995278,-0.294,1.31,-0.473,0.141,-0.0159
SULT4A1 (sulfotransferase family 4A member 1),SID363998777,-0.411,1.94,-0.455,-0.625,0.0292
CD84 (CD84 molecule),SID363994933,-0.218,1.28,-0.271,-0.156,-0.47
PPP1R17 (protein phosphatase 1 regulatory subunit 17),SID363997444,0.0703,2.71,0.313,0.0498,-0.45
